Results from one PubChem assay

From PubChem BioAssay record AID1159506 (NCATS, 2015).

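Luminescence from an EWS-FLI1 target-promoter (NR0B1) reporter, set against a CMV-promoter reporter, two days after silencing single genes in TC32 Ewing sarcoma cells. Each siRNA was applied at 20 nM. A z-score of the log NR0B1-over-CMV signal, less the median of siRNAs with the same seed; more negative means a stronger specific loss of the NR0B1 reporter.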

The strongest results of the screen are mostly left out here. Sequences are the guide (antisense) strand, without overhang.

{"sequence": "AUUGGUAGCUGCUUUAAUG", "gene": "PSMC3IP", "seed-corrected z-score": "0.7834"}
{"sequence": "AACAGAAACACGUUGCGGC", "gene": "CNR1", "seed-corrected z-score": "0.06172"}
{"sequence": "UCAGUUUCUCUAGAUUACC", "gene": "ANKRD36", "seed-corrected z-score": "-0.5027"}
{"sequence": "UAUACUAGACUGUAACUGC", "gene": "SCLT1", "seed-corrected z-score": "0.3055"}
{"sequence": "UAUACUAGGAUCUUCAUUG", "gene": "C5orf15", "seed-corrected z-score": "-0.2764"}
{"sequence": "UCAAUAACAAAGUCCGAAC", "gene": "TEX10", "seed-corrected z-score": "0.02557"}
{"sequence": "UAAUCUGCCUCCUUGAUCG", "gene": "PHF14", "seed-corrected z-score": "-1.314"}
{"sequence": "UUAGUAACUUCCCAGUCCG", "gene": "GNL2", "seed-corrected z-score": "0.4273"}
{"sequence": "UCAGGGACGUCUCUCUCUG", "gene": "NUTM2E", "seed-corrected z-score": "-0.7428"}
{"sequence": "UUCAAUUCCAAGGUGCGUG", "gene": "CSNK1D", "seed-corrected z-score": "-0.2194"}
{"sequence": "UAUAGAUGUGCUAUAUUCC", "gene": "RAD17", "seed-corrected z-score": "0.615"}
{"sequence": "UUCAUGAUCACCAUGUAGU", "gene": "OR2W3", "seed-corrected z-score": "1.664"}
{"sequence": "UAGCAUCCAAUUUGCAUCC", "gene": "COL3A1", "seed-corrected z-score": "0.4668"}
{"sequence": "UCUGUUCCCGGUUGAAGGC", "gene": "MBD1", "seed-corrected z-score": "0.8358"}
{"sequence": "UAACGGGUAAUCAAGUGGG", "gene": "UBE2G2", "seed-corrected z-score": "-0.86"}
{"sequence": "AAAUGAGUACCCAAUUGCC", "gene": "ELMOD1", "seed-corrected z-score": "-0.5659"}
{"sequence": "UUCAUAAACGUGCUCAGGG", "gene": "C12orf77", "seed-corrected z-score": "0.2003"}
{"sequence": "UAAUAACCAAGUAAUCUGG", "gene": "POU2AF1", "seed-corrected z-score": "0.4006"}
{"sequence": "AUAGAUGUUAAUGGAGCCG", "gene": "ENC1", "seed-corrected z-score": "0.5444"}
{"sequence": "UAUGAUAAUGCGGGUGUAG", "gene": "OR10A7", "seed-corrected z-score": "0.632"}
{"sequence": "UAAACGGAAAUCAUCAACG", "gene": "SYT16", "seed-corrected z-score": "0.3913"}
{"sequence": "UCUGGGAAGGCUUAAUUCC", "gene": "ZNF81", "seed-corrected z-score": "-1.207"}
{"sequence": "UCAUUAGCGAGUCCAUCCG", "gene": "MBD3L1", "seed-corrected z-score": "-0.297"}
{"sequence": "UUCUUAGACAGCACGCGGA", "gene": "LINC01168", "seed-corrected z-score": "-0.3934"}
{"sequence": "UUAGCAACACUCGCUCUUC", "gene": "YPEL2", "seed-corrected z-score": "1.161"}
{"sequence": "AAAUGAGCUUGUCUAAUGC", "gene": "OR13C3", "seed-corrected z-score": "-0.39"}

Some entries from above, unchanged:

{"sequence": "UUAGCAACACUCGCUCUUC", "gene": "YPEL2", "seed-corrected z-score": "1.161"}
{"sequence": "UAUACUAGGAUCUUCAUUG", "gene": "C5orf15", "seed-corrected z-score": "-0.2764"}